Assay results published in patent publication US20230330060A1, “COMPOUNDS FOR TREATMENT OF HEART FAILURE” (Sulfateq B.V., priority 2020, published 2023).
At least one structure is not confirmed: it was looked up by name or label, or the drawing left a doubt.

System: H9C2 cardiomyocytes
Assay: Quantification of phenylephrine-induced EGFP synthesis as surrogate for cell size (hypertrophy)
Assay type: cell-based, rat
Conditions: preincubation with 30 μM compound
Protocol: Rat H9C2 cardiomyoblasts (ATCC CRL-1446) were maintained in DMEM medium containing 10% fetal bovine serum and 1% Penicillin-Streptomycin solution (Sigma-Aldrich) and passaged when the cultures reach a confluency of 70%. Prior to experiments, H9C2 myoblasts were differentiated to cardiomyocytes by serum reduction (to 1%) and stimulation with 20 nM retinoic acid for 5 days. Differentiated H9C2 cardiomyocytes were seeded at 0.6·10^5 cells/cm^2 for all experiments.
H9C2 cardiomyocytes (0.6·10^5 cells/cm2) were infected with CMV-copGPF (MOI 10) in culture medium without serum for 24 h. H9C2 cardiomyocytes were pre-incubated with 30 μM SUL compounds under standard culture conditions for 30 min and then stimulated with phenylephrine (dose range 2·10^−5 to 1·10^−11 M) for an additional period of 24 h. Thereafter H9C2 cardiomyocytes were lysed in 100 μl soft lysis buffer (25 mM Tris, 2 mM Dithiothreitol, 2 mM EDTA, 1% Triton X-100, pH 7.4). per well and fluorescence intensity of the obtained supernatant was recorded in a CLARIOStar Plus plate reader (BMG Labtech) equipped with a FITC filter set (excitation 488 nm with 10 nm bandwidth; emission 515 with a 20 nm bandwidth).
All experiments were performed in triplicate per condition and averaged. Data obtained from two individual experiments were used for evaluation in GraphPad Prism 8.0 (GraphPad Software Inc, Ca). […]

Cc1c(C)c(O)c(CC[C@@](C)(O)C(=O)N2CCN(CCO)CC2)c(C)c1O [SUL-138M2, 4-(2,5-dihydroxy-3,4,6-trimethylphenyl)-2-hydroxy-1-(4-(2-hydroxyethyl)piperazin-1-yl)-2-methylbutan-1-one]
Expression of EGFP induced by phenylephrine (FIG. 3): reduced the expression of EGFP
